# Data source: PubChem BioAssay AID1259425 (University of Nebraska Medical Center, 2018)
# Assay: 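Seek colon cancer weak points whose silencing resembles KSR1 loss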 (primary screen)
# Cell system: HCT116 human colon cancer cells
# Knock-down reagent: siRNA pool against human genes, 50 nM siRNA
# Measurement: 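After 50 nM siRNA pool, branched-DNA assay measures six marker transcripts per well, minus blank, normalised to the geometric mean of two housekeeping transcripts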
# Reading the numbers: BNIP3L mRNA: higher = more BNIP3L transcript after knockdown
# In all, the deposit lists about 14,000 reagents; shown is a part drawn at random. Further read-outs or replicates are left out here. Not stated in the record: the time to read-out.
Target gene,"BNIP3L mRNA, set 1"
CSK (C-terminal Src kinase),0.0936
BUB3 (BUB3 mitotic checkpoint protein),0.175
ZBTB16 (zinc finger and BTB domain containing 16),0.0692
DDX42 (DEAD-box helicase 42),0.187
BIN1 (bridging integrator 1),0.062
PTK2 (protein tyrosine kinase 2),0.121
PSG9 (pregnancy specific beta-1-glycoprotein 9),0.177
CST1 (cystatin SN),0.17
CHRNB2 (cholinergic receptor nicotinic beta 2 subunit),0.0994
TAF1D,0.098
IFT81 (intraflagellar transport 81),0.114
RAC2 (Rac family small GTPase 2),0.0846
ZNF696 (zinc finger protein 696),0.104
RAD51 (RAD51 recombinase),0.173
DELE1 (DAP3 binding cell death enhancer 1),0.0805
LGALS1 (galectin 1),0.184
GPX2 (glutathione peroxidase 2),0.0871

Copied from the list.
Value of IFT81 (intraflagellar transport 81) in “BNIP3L mRNA, set 1”: 0.114
ZNF696 (zinc finger protein 696), BNIP3L mRNA, set 1: 0.104
ZBTB16 (zinc finger and BTB domain containing 16), BNIP3L mRNA, set 1: 0.0692
Value of CSK (C-terminal Src kinase) under “BNIP3L mRNA, set 1”: 0.0936
Under “BNIP3L mRNA, set 1”, RAC2 (Rac family small GTPase 2) is entered as 0.0846

Next reagents follow:
Target gene,"BNIP3L mRNA, set 1"
PAX9 (paired box 9),0.106
ATF5 (activating transcription factor 5),0.0726
CCR6 (C-C motif chemokine receptor 6),0.17
SDHAF2 (succinate dehydrogenase complex assembly factor 2),0.0556
CDK1 (cyclin dependent kinase 1),0.108
DLC1 (DLC1 Rho GTPase activating protein),0.125
SPART (spartin),0.186
HSD11B1 (hydroxysteroid 11-beta dehydrogenase 1),0.0599
MYO5C (myosin VC),0.071
C1QBP (complement C1q binding protein),0.0585
"RAB33B (RAB33B, member RAS oncogene family)",0.104
SECISBP2 (SECIS binding protein 2),0.138
REG1A (regenerating family member 1 alpha),0.102
KLRC3 (killer cell lectin like receptor C3),0.168
BDKRB1 (bradykinin receptor B1),0.235
HTR1A (5-hydroxytryptamine receptor 1A),0.125
WDR55 (WD repeat domain 55),0.12
BEND3 (BEN domain containing 3),0.102
IL6 (interleukin 6),0.104
ABCB7 (ATP binding cassette subfamily B member 7),0.067
UBASH3A (ubiquitin associated and SH3 domain containing A),0.0968
DST (dystonin),0.0563
PICK1 (protein interacting with PRKCA 1),0.132
GATM (glycine amidinotransferase),0.111
PRMT7 (protein arginine methyltransferase 7),0.0844
F2RL3 (F2R like thrombin or trypsin receptor 3),0.116
GDE1 (glycerophosphodiester phosphodiesterase 1),0.0849
H3-3B (H3.3 histone B),0.121
IFNB1 (interferon beta 1),0.114
AIRE (autoimmune regulator),0.126
RIMBP3 (RIMS binding protein 3),0.179
COX7A1 (cytochrome c oxidase subunit 7A1),0.163
PPP1R7 (protein phosphatase 1 regulatory subunit 7),0.103
